{"source": "the supplement of paper PMC6411743", "target": "T1, UniProt Q7LGA3 and related entries", "T1 sequence (whole entry)": "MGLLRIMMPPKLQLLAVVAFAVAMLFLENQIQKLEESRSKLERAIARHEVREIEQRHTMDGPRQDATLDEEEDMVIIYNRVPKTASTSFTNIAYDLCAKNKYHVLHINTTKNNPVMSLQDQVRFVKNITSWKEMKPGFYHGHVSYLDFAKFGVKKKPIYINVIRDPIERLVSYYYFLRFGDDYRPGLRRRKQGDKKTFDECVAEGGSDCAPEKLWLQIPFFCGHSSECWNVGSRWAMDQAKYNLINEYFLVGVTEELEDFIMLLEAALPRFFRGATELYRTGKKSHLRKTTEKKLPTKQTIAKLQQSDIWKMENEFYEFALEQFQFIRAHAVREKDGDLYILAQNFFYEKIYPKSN", "assay": "NP40-soluble protein abundance relative to vehicle (solubility fold change) (ratio); higher = more soluble protein in presence of GTP", "method": "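Solubility proteome profiling in Jurkat crude lysate. Lysate was treated with Mg-GTP (0.1-10 mM) for 10 min at room temperature and 3 min at 37 °C, then solubilised with 0.8% NP40 and benzonase, followed by ultracentrifugation. Proteins were quantified by TMT10 LC-MS/MS; the value is the NP40-soluble abundance relative to the NP40-processed vehicle, from 3 independent experiments.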", "note": "± gives the standard deviation of the averaged measurements. Some of the results follow."}
{"smiles": "Nc1nc2c(ncn2[C@@H]2O[C@H](COP(=O)(O)OP(=O)(O)OP(=O)(O)O)[C@@H](O)[C@H]2O)c(=O)[nH]1", "note": "[guanosine triphosphate]", "values": [{"measurement": "NP40-soluble protein abundance", "setting": "concentration: 0.1mM", "value": "1.16 ± 0.03"}, {"measurement": "NP40-soluble protein abundance", "setting": "concentration: 0.5mM", "value": "1.16 ± 0.092"}, {"measurement": "NP40-soluble protein abundance", "setting": "concentration: 1mM", "value": "1.24 ± 0.11"}, {"measurement": "NP40-soluble protein abundance", "setting": "concentration: 2mM", "value": "1.23 ± 0.13"}, {"measurement": "NP40-soluble protein abundance", "setting": "concentration: 4mM", "value": "1.39 ± 0.052"}, {"measurement": "NP40-soluble protein abundance", "setting": "concentration: 6mM", "value": "1.34 ± 0.2"}, {"measurement": "NP40-soluble protein abundance", "setting": "concentration: 8mM", "value": "1.38 ± 0.22"}, {"measurement": "NP40-soluble protein abundance", "setting": "concentration: 10mM", "value": "1.42 ± 0.21"}]}
